Reference: article PMC9560165
No constants are given. Whether binding was seen depends on the method and setting. In cells and extracts the contact can be indirect. Some binding calls cover weakened binding; strength is not graded here.

Protein sequences, listed by entry. Tags and fused reporters are not part of them.
UniProt O14929: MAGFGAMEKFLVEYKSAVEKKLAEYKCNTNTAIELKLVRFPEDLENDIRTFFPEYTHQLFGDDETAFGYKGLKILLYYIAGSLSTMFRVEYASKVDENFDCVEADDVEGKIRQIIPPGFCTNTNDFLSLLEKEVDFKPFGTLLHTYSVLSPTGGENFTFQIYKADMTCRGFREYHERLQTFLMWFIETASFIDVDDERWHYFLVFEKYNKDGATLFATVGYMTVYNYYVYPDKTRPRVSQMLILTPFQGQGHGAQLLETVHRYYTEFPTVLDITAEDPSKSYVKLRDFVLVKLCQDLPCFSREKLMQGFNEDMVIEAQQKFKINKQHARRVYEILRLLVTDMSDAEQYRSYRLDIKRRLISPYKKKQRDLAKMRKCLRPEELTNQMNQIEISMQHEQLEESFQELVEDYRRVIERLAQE
UniProt Q9NVP2: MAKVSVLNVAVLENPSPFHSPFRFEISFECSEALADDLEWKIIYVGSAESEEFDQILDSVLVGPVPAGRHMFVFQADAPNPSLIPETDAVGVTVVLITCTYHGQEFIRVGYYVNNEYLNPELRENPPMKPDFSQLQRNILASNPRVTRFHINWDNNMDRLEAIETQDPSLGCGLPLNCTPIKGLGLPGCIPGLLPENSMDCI

Target: EGFP-TEV-sNASP (human) (UniProt P49321)
Assay: co-IP + co-sedimentation; GFP-Trap pull-down of eGFP-sNASP from transiently transfected HEK293-F cells, TEV release, 4–20% glycerol gradient (240,000 × g, 14 hr, 4°C); SDS-PAGE, silver stain and Western blot of fractions

HAT1 (from UniProt O14929 1-419)
binding: binds

ASF1B (from UniProt Q9NVP2 1-202)
binding: binds
